One substance from PMC2798614 can be followed below.

For one assay, the target named is T1, MAXP1 (UniProt O35141).
T1 sequence: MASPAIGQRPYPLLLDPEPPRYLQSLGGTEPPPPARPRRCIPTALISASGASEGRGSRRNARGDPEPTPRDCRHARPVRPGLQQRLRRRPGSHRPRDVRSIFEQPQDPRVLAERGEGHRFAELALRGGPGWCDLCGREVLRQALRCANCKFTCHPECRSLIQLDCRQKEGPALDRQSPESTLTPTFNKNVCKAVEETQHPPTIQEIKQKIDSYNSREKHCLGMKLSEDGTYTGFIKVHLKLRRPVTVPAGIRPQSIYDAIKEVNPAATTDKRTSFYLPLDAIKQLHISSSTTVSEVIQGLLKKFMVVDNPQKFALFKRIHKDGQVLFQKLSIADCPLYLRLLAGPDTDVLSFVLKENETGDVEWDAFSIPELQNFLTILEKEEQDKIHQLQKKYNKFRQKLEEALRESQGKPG
The assay can be described thus: two-hybrid; yeast strain AH10 (Clontech) cotransformed with pGBKT7 and pGADT7 constructs; selected on -Leu/-Trp (2-DO), interaction tested by growth on -Leu/-Trp/-His/-Ade (4-DO), scored after 5 days at 30°C.

The target of a further assay is p53 (full-length) (UniProt P04637). Described as above.

Results are given in words; binding and its absence hold for the method and conditions named.

p19 H-Ras (from UniProt P01112-2 1-170): the binding entry in the assay with MAXP1 and in the assay with p53 (full-length) was “no binding” throughout.
